Results: the supplement of paper PMC8616043
“And” between values parts separate entries of the source, which are not always exact repeats. Equal entries are not always repeated. Structures can show the parent of a compound that is named as a salt. Some of the results follow. Single values are uncertain here, since repeats match poorly.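 Human U-2 OS cells stably expressing a GFP sensor with a nuclear import signal and classical export signal were transfected to produce PR50, a 50-repeat proline–arginine dipeptide from ALS/FTD gene C9ORF72. Nuclear-minus-cytoplasm GFP was scaled from DMSO (low) to PR-only (high), scored against plate test wells; strongly negative scores marked PR-reversing hits.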

tested on: U-2 OS NCT-C biosensor cells expressing PR50; assay: Z-score of normalised NCT-C biosensor translocation index in PR50-expressing cells; higher = more nuclear biosensor (more disrupted nuclear export); details: 3 µM; 24 h

Row | Compound | Z-score
1 | Cn1ccc2cc(NC(=O)Nc3cccnc3)ccc21 | inactive: -0.1
2 | O=c1oc2ccccc2c(O)c1Cc1c(O)c2ccccc2oc1=O [Dicoumarol] | inactive: -0.876
3 | CC(=O)[C@]1(O)Cc2c(O)c3c(c(O)c2[C@@H](O[C@H]2C[C@H](N)[C@H](O)[C@H](C)O2)C1)C(=O)c1ccccc1C3=O [Idarubicin hydrochloride] | inactive: 0.295
4 | Nc1nc(=S)c2[nH]cnc2[nH]1 [6-Thioguanine] | inactive: -1.03
5 | CC(/C=C1\SC(=S)N(CC(=O)O)C1=O)=C\c1ccccc1 [Epalrestat] | inactive: -0.238
6 | CCCOc1ccn2c(C(C)=O)cc(-c3ccccc3S(C)(=O)=O)c2c1 | inactive: -0.281
7 | CN1CCN(CCCN2c3ccccc3Sc3ccc(Cl)cc32)CC1 [Prochlorperazine dimaleate] | inactive: 0.21
8 | CC(=O)OCC(CCn1cnc2cnc(N)nc21)COC(C)=O [Famciclovir] | inactive: -0.0403
9 | COc1ccc([C@@H]2CC(=O)c3c(O)cc(O[C@@H]4O[C@H](CO)[C@@H](O)[C@H](O)[C@H]4O[C@@H]4O[C@@H](C)[C@H](O)[C@@H](O)[C@H]4O)cc3O2)cc1O [Neohesperidin] | inactive: 0.217
10 | NNc1nncc2ccccc12 [Hydralazine] | inactive: -1.32
11 | NNc1nncc2ccccc12 [Hydralazine HCl] | inactive: -0.115
12 | NNc1nncc2ccccc12 [Hydralazine·HCl] | inactive: 0.147
13 | O=C(/C=C/c1ccc(O)c(O)c1)OCCc1ccccc1 [Caffeic acid phenethyl ester] | inactive: -0.765
14 | C[C@H](CCC(=O)O)[C@H]1CC[C@H]2[C@@H]3[C@H](O)C[C@@H]4C[C@H](O)CC[C@]4(C)[C@H]3CC[C@]12C [Chenodiol (Chenodeoxycholic Acid)] | inactive: 0.311
15 | CC[C@H](C)C(=O)O[C@H]1CCC=C2C=C[C@H](C)[C@H](CC[C@@H]3C[C@@H](O)CC(=O)O3)[C@H]21 [Mevastatin] | inactive: -0.595
16 | COc1c2occc2c(OC)c2c(=O)cc(C)oc12 [Khellin] | inactive: 0.0222
17 | CCC(C)N(C)C(=O)c1cc2ccccc2c(-c2ccccc2Cl)n1 (configuration not stated) | inactive: 2.86
18 | Nc1nc2ccc(Cl)cc2c2nc(-c3ccco3)nn12 | inactive: 0.161
19 | COc1cc2c(c(OC)c1OC)-c1ccc(OC)c(=O)cc1[C@@H](NC=O)CC2 [N-Formyl-Deacetylcolchicine] | inactive: -0.52
20 | CCOC(=O)Nc1cc(-c2ccc(C)c(NS(C)(=O)=O)c2)nn2c(C)nnc12 [Bromosporine] | inactive: -0.717
21 | C/C=C(/C)C(=O)O[C@H]1CC(C)=CC(=O)[C@@]2(C)CC[C@@](O)(C(C)C)[C@H]12 [Lapidin] | inactive: -0.0842

Copied from the list.
C/C=C(/C)C(=O)O[C@H]1CC(C)=CC(=O)[C@@]2(C)CC[C@@](O)(C(C)C)[C@H]12 [Lapidin] – Z-score: inactive: -0.0842
O=c1oc2ccccc2c(O)c1Cc1c(O)c2ccccc2oc1=O [Dicoumarol] – Z-score: inactive: -0.876

Going on with the list:

Row | Compound | Z-score
22 | O=C(NCCO)c1cccc(-c2cc(Nc3ccc(OC(F)(F)F)cc3)ncn2)c1 | inactive: 0.188
23 | Nc1ncnc2c1c(-c1ccc(Oc3ccccc3)cc1)cn2C1CCCC1 | inactive: -0.504
24 | c1cc(SSc2ccns2)sn1 | inactive: -1.63
25 | C[C@@H]1O[C@@H](O[C@H]2[C@H](Oc3cc(O)c4c(=O)cc(-c5ccc(O)cc5)oc4c3)O[C@H](CO)[C@@H](O)[C@@H]2O)[C@H](O)[C@H](O)[C@H]1O [Rhoifolin] | inactive: -0.365
26 | O=C(O)[C@H]1NCCC[C@H]1C(=O)O (relative stereo) [cis-Piperidine-2,3- dicarboxylic acid] | inactive: -0.423
27 | CC(C)CCC[C@@H](C)[C@H]1CC[C@H]2[C@@H]3C[C@@H](NCCCNCCCCNCCCN)C4C[C@@H](O)CC[C@]4(C)[C@H]3CC[C@]12C (some centres not stated) [Claramine trifluoroacetate salt] | inactive: -0.24
28 | COc1cc(/C=C(\C#N)C(=O)Nc2nnc(C(F)(F)F)s2)ccc1OCc1ccc(C(F)(F)F)cc1C(F)(F)F | inactive: -0.868
29 | O=[N+]([O-])c1cccc2cn[nH]c12 [7-Nitroindazole] | inactive: -0.255
30 | COc1ccccc1OCC(O)CN1CCN(CC(=O)Nc2c(C)cccc2C)CC1 (configuration not stated) [Ranolazine·2HCl] | inactive: -0.193
31 | COc1ccccc1OCC(O)CN1CCN(CC(=O)Nc2c(C)cccc2C)CC1 (configuration not stated) [Ranolazine dihydrochloride] | inactive: -0.768
32 | COc1cc([C@@H]2c3cc4c(cc3[C@@H](O[C@@H]3O[C@@H]5CO[C@@H](C)O[C@H]5[C@H](O)[C@H]3O)[C@H]3COC(=O)[C@H]23)OCO4)cc(OC)c1O [Etoposide] | inactive: 1.34
33 | CCCNCC(O)COc1ccccc1C(=O)CCc1ccccc1 (configuration not stated) [Propafenone hydrochloride] | inactive: -0.216
34 | CCCNCC(O)COc1ccccc1C(=O)CCc1ccccc1 (configuration not stated) [Propafenone·HCl] | inactive: 3.36
35 | C[C@H]1C[C@@H]2[C@H]([C@@H](O)C[C@@]3(C)[C@H]2CC[C@]3(O)C(=O)CO)[C@@]2(C)C=CC(=O)C=C12 [Methylprednisolone] | inactive: 0.376
36 | CC(=O)O[C@]1(C(C)=O)CC[C@H]2[C@@H]3C[C@H](C)C4=CC(=O)CC[C@]4(C)[C@H]3CC[C@@]21C [Medroxyprogesterone Acetate] | inactive: 0.0816
37 | COc1cc2c(cc1-c1c(C)noc1C)ncc1[nH]c(=O)n([C@H](C)c3ccccn3)c12 | inactive: 1.51 and inactive: 6.12
38 | CN(C)c1nc(N(C)C)nc(N(C)C)n1 [Altretamine] | inactive: 0.415
39 | N[C@H](C(=O)O)[C@H](O)c1ccc(O)c(O)c1 | inactive: -0.846
40 | N=C(N)NCCCC[C@@H]1NC(=O)CCSSC[C@@H](C(N)=O)NC(=O)[C@@H]2CCCN2C(=O)[C@H](Cc2c[nH]c3ccccc23)NC(=O)[C@H](CC(=O)O)NC(=O)CNC1=O [Eptifibatide] | inactive: 0.426
41 | CCOC(=O)Oc1c(OC)cc(C(=O)O[C@@H]2C[C@@H]3CN4CCc5c([nH]c6cc(OC)ccc56)[C@H]4C[C@@H]3[C@H](C(=O)OC)[C@H]2OC)cc1OC [Syrosingopine] | inactive: 0.0665
42 | CCCCC(F)(F)[C@@]1(O)CC[C@H]2[C@@H](CC(=O)[C@@H]2CCCCCCC(=O)O)O1 [Lubiprostone] | inactive: -1.04

Row | Compound | Z-score
43 | COc1ccc(-c2cc3ncc(C)n3c(Nc3ncccc3C(N)=O)n2)cc1OC [BAY 61-3606 hydrochloride hydrate] | inactive: -0.478
44 | CCC(=O)O[C@]1(C(=O)CCl)[C@@H](C)C[C@H]2[C@@H]3CCC4=CC(=O)C=C[C@]4(C)[C@@]3(F)[C@@H](O)C[C@@]21C [Clobetasol Propionate] | inactive: 1.03
45 | O=C1C[C@@H](c2ccc(O)cc2)Oc2cc(O)cc(O)c21 [Naringenin] | inactive: -0.483
46 | CC(C)C[C@H](NP(=O)(O)O[C@H]1O[C@H](C)[C@@H](O)[C@H](O)[C@@H]1O)C(=O)N[C@@H](Cc1c[nH]c2ccccc12)C(=O)O [Phosphoramidon disodium] | inactive: -0.982
47 | CC(/C=C/c1cccc(Oc2ccc(F)cc2)c1)N(O)C(N)=O (configuration not stated) | inactive: 3.27
48 | O=c1c(O)c(-c2ccc(O)cc2O)oc2cc(O)cc(O)c12 [Morin] | inactive: -0.336
49 | COc1ccc(C2CNC(=O)C2)cc1OC1CCCC1 (configuration not stated) [Rolipram] | inactive: -0.954
50 | O=c1c(-c2ccc(O)cc2)coc2cc(O[C@@H]3O[C@H](CO)[C@@H](O)[C@H](O)[C@H]3O)ccc12 [Daidzin] | inactive: -0.554
51 | CCCCCCCCCCCCCCCC(=O)O[C@@H]1[C@@H](O)[C@@H](O)[C@@H]([C@H](NC(=O)[C@@H]2C[C@@H](CCC)CN2C)[C@H](C)Cl)O[C@@H]1SC [Clindamycin Palmitate·HCl] | inactive: -0.705
52 | O=C(O)C1=CCCNC1 [Guvacine hydrochloride] | inactive: -0.514
53 | Nc1ncnc2c1nc(Sc1ccc(Cl)cc1)n2C1OC2COP(=O)(O)O[C@@H]2[C@@H]1O (some centres not stated) [8-(4-Chlorophenylthio)-cAMP sodium] | inactive: -0.532
54 | Nc1ncnc2c1c(I)cn2[C@@H]1O[C@H](CO)[C@@H](O)[C@H]1O [5-Iodotubercidin] | inactive: -1.38
55 | CC1Cc2ccccc2N1NC(=O)c1ccc(Cl)c(S(N)(=O)=O)c1 (configuration not stated) [Indapamide] | inactive: 0.543
56 | CC(C)(C)[C@]1(O)CCN2C[C@H]3c4ccccc4CCc4cccc(c43)[C@@H]2C1 [(+)-Butaclamol hydrochloride] | inactive: 0.345
57 | CC(C)(C)[C@]1(O)CCN2C[C@H]3c4ccccc4CCc4cccc(c43)[C@@H]2C1 (racemic) [(±)-Butaclamol hydrochloride] | inactive: 3.13
58 | Nc1nc2[nH]c(=O)cnc2c(=O)[nH]1 [Isoxanthopterin] | inactive: 0.0902
59 | CNC(=O)c1cnn(-c2nc(N)c3ncn([C@@H]4O[C@H](CO)[C@@H](O)[C@H]4O)c3n2)c1 [Regadenoson] | inactive: -0.242
60 | CO/N=C(\C(=O)N[C@@H]1C(=O)N2C(C(=O)O)=C(COC(N)=O)CS[C@H]12)c1ccco1 [Cefuroxime·Na] | inactive: 0.0218
61 | Nc1ccc(S(=O)(=O)Nc2ccnn2-c2ccccc2)cc1 [Sulfaphenazole] | inactive: -0.403
62 | C=CCN1CCc2c(cc(O)c(O)c2Br)[C@@H](c2ccccc2)C1 [R(+)-6-Bromo- APB  hydrobromide] | inactive: 4.09
